# At least one structure is not confirmed: it was looked up by name or label, or the drawing left a doubt.
# System: de novo fatty acid synthesis
# Conditions: Liver, PE, mean of treated mice
smiles,measurement,value
CN(CCOc1ccc(CC2SC(=O)NC2=O)cc1)c1ccccn1 (stereo not shown) [rosiglitazone],Total n9,1211.6 nanomoles per gram
